Experimental data published in PMC10137900.
Results are given in words; binding and its absence hold for the method and conditions named. Some results given as binding are weak or reduced against the parent protein; the word gives no strength. Each block holds one molecule with its values, some of them ahead of it.

Chains of the proteins cited; added tags and fusions are not shown. Lines headed by an entry give the natural chain unless they say otherwise; changes in a name come on top.
UniProt P28340: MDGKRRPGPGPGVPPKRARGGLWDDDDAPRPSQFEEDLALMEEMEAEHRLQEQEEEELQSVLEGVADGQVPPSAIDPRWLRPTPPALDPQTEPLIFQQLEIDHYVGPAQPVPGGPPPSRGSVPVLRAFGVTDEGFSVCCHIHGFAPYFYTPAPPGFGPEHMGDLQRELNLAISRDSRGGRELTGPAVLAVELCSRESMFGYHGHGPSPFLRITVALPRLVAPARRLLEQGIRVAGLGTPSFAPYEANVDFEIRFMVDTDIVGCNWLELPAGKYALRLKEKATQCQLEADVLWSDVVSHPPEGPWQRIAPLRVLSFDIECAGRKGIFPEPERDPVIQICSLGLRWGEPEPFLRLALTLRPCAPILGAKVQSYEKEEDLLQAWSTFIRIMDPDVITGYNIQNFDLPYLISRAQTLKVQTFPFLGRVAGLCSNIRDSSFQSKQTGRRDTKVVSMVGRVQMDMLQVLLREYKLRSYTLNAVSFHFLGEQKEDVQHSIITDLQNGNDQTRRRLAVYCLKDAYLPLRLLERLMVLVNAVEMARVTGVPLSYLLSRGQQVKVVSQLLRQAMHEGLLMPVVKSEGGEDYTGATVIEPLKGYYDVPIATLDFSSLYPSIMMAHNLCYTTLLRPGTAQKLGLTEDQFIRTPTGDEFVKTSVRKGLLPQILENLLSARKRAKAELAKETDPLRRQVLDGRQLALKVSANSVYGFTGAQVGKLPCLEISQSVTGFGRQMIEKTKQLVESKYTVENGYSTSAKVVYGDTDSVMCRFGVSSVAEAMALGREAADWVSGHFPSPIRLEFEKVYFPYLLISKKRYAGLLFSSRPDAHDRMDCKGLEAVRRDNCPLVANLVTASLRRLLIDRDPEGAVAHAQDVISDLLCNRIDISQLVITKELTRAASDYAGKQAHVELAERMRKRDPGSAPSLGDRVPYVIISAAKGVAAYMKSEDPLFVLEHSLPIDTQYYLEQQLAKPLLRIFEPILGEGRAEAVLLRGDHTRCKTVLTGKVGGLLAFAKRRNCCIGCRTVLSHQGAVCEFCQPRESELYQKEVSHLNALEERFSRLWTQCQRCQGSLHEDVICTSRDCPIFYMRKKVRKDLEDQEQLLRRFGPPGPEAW
UniProt P49005: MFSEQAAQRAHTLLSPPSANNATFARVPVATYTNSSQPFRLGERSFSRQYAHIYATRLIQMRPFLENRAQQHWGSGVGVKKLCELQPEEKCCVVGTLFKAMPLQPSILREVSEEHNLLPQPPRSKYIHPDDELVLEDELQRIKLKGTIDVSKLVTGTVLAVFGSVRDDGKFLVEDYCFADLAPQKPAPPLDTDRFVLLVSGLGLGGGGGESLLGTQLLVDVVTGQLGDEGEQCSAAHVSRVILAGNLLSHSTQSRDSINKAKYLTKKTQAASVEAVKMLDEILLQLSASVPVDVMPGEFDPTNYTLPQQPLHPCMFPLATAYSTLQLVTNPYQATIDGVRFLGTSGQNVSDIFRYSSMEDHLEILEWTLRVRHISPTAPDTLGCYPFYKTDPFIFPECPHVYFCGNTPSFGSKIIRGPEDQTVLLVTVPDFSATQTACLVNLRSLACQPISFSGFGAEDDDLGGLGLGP

Molecular target: Human DNA polymerase δ catalytic subunit p125 (human) (UniProt P28340)
Assay: SEC; four subunits co-expressed in E. coli; complex eluted from Ni-NTA, dialysed and concentrated, then run on an SEC column (Bio-Rad) at 0.5 mL/min in 40 mM HEPES pH 7.5, 100 mM NaCl, 10% glycerol; both purified

binding: binds
Molecule: Human DNA polymerase δ subunit p50 (from UniProt P49005 1-469)

binding: binds
B1: Human DNA polymerase δ subunit p66 (protein, UniProt Q15054 1-466)
chain: MADQLYLENIDEFVTDQNKIVTYKWLSYTLGVHVNQAKQMLYDYVERKRKENSGAQLHVTYLVSGSLIQNGHSCHKVAVVREDKLEAVKSKLAVTASIHVYSIQKAMLKDSGPLFNTDYDILKSNLQNCSKFSAIQCAAAVPRAPAESSSSSKKFEQSHLHMSSETQANNELTTNGHGPPASKQVSQQPKGIMGMFASKAAAKTQETNKETKTEAKEVTNASAAGNKAPGKGNMMSNFFGKAAMNKFKVNLDSEQAVKEEKIVEQPTVSVTEPKLATPAGLKKSSKKAEPVKVLQKEKKRGKRVALSDDETKETENMRKKRRRIKLPESDSSEDEVFPDSPGAYEAESPSPPPPPSPPLEPVPKTEPEPPSVKSSSGENKRKRKRVLKSKTYLDGEGCIVTEKVYESESCTDSEEELNMKTSSVHRPPAMTVKKEPREERKGPKKGTAALGKANRQVSITGFFQRK

binding: binds
B2: Human DNA polymerase δ subunit p12 (protein, UniProt Q9HCU8 1-107)
chain: MGRKRLITDSYPVVKRREGPAGHSKGELAPELGEEPQPRDEEEAELELLRQFDLAWQYGPCTGITRLQRWCRAKQMGLEPPPEVWQVLKTHPGDPRFQCSLWHLYPL
